Assay results: PubChem BioAssay AID288 (DTP/NCI, 2004)
The list does not hold the whole screen: it gathers tests that were run many times, whatever their T/C, doses with no T/C, and many T/C values between a quarter and a half above the control. Further doses and runs are listed elsewhere. T/C gives the treated animals as a percentage of the vehicle group. Schedules are NCI's codes, read here as Q, the interval in days (D) or hours (H), X, the number of doses. Some T/C values carry the count of animals alive at the toxicity check (mostly the fifth day); where none is given, no animal had died by that day. Some entries give survivors of the animals treated and no T/C: the source files T/C as zero there, which appears to mark a toxic dose or a test without result, not a measured value. Some survivor counts are full or nearly so, which does not show that the dose was tolerated: the source hardly ever lists a survival T/C far under the control, and the zero likely stands for such cases as well. Survivors were counted at the toxicity check, usually on the fifth day, unless a day is given; later deaths do not show. Some entries were tested several times; their values stand side by side, smallest first. Where survival is the endpoint, the PubChem record calls one and a half times the control and up active, and a quarter to a half above the control has no call in these data; cut-offs in other NCI protocols can differ.

Test system: BDF1 mice, M5076 sarcoma s.c., survival/tumor T/C
Test: NCI In Vivo Anticancer Drug Screen. Data for tumor model Sarcoma M5076 (subcutaneous) in B6D2F1 (BDF1) mice
Method: The antitumor activity of compounds was measured in mice bearing transplantable tumors. Survival or tumor size were measured and the results are expressed as the measurement made in the treated group (T) divided by the measurement made in the vehicle treated control group (C). The tumor model used in this assay is Sarcoma M5076 (subcutaneous) in B6D2F1 (BDF1) mice

## NC(C/[N+]([O-])=N/O)C(=O)O (centres undefined)
T/C endpoint: median survival time, dose: 19.8 mg/kg/injection, schedule: Q01DX010 (ip), vehicle: alkali diluted with saline, higher T/C = longer survival
  T/C: 129 % of control
T/C endpoint: median survival time, dose: 79.0 mg/kg/injection, schedule: Q04DX005 (ip), vehicle: alkali diluted with saline, higher T/C = longer survival
  survivor count: 6 of 10 on day 77
T/C endpoint: median survival time, dose: 100.0 mg/kg/injection, schedule: Q01DX010 (ip), vehicle: alkali diluted with saline, higher T/C = longer survival
  survivor count: 3 of 10 on day 77 and 10 of 10
T/C endpoint: median survival time, dose: 119.0 mg/kg/injection, schedule: Q04DX005 (ip), vehicle: alkali diluted with saline, higher T/C = longer survival
  T/C: 133 % of control
T/C endpoint: median survival time, dose: 178.0 mg/kg/injection, schedule: Q04DX005 (ip), vehicle: alkali diluted with saline, evaluated on day 75, higher T/C = longer survival
  T/C: 133 % of control
T/C endpoint: median survival time, dose: 178.0 mg/kg/injection, schedule: Q04DX005 (ip), vehicle: alkali diluted with saline, evaluated on day 77, higher T/C = longer survival
  T/C: 132 % of control [9 of 10 alive on day 77]
T/C endpoint: median survival time, dose: 400.0 mg/kg/injection, schedule: Q04DX005 (ip), vehicle: alkali diluted with saline, higher T/C = longer survival
  survivor count: 5 of 10 on day 77
T/C endpoint: median survival time, dose: 600.0 mg/kg/injection, schedule: Q04DX005 (ip), vehicle: alkali diluted with saline, higher T/C = longer survival
  survivor count: 0 of 10 on day 77 and 10 of 10
T/C endpoint: median tumor weight (est.), dose: 200.0 mg/kg/injection, schedule: Q02DX011 (ip), vehicle: alkali diluted with saline, higher T/C = larger tumour
  survivor count: 1 of 10 on day 22
T/C endpoint: median tumor weight (est.), dose: 400.0 mg/kg/injection, schedule: Q02DX011 (ip), vehicle: alkali diluted with saline, higher T/C = larger tumour
  survivor count: 0 of 10 on day 22

## c1cc2n(n1)CCN2
T/C endpoint: median tumor weight (est.), dose: 12.5 mg/kg/injection, schedule: Q02DX011 (ip), vehicle: saline, evaluated on day 22, higher T/C = larger tumour
  T/C: 148 % of control [9 of 10 alive on day 22]
T/C endpoint: median tumor weight (est.), dose: 25.0 mg/kg/injection, schedule: Q02DX011 (ip), vehicle: saline, evaluated on day 22, higher T/C = larger tumour
  T/C: 137 % of control [9 of 10 alive on day 22]

## C1CCC2OCCOCCOCCOCCOC2C1 (centres undefined)
T/C endpoint: median survival time, dose: 200.0 mg/kg/injection, schedule: Q01DX009 (ip), vehicle: saline, higher T/C = longer survival
  survivor count: 0 of 10
T/C endpoint: median tumor weight (est.), dose: 200.0 mg/kg/injection, schedule: Q01DX009 (ip), vehicle: saline, higher T/C = larger tumour
  survivor count: 0 of 10 on day 20

## NCCc1ccc(O)c(O)c1
T/C endpoint: median survival time, dose: 400.0 mg/kg/injection, schedule: Q02DX030 (ip), vehicle: saline, higher T/C = longer survival
  survivor count: 10 of 10 on day 16

## CN(C)/N=N/c1nc[nH]c1C(N)=O
T/C endpoint: median survival time, dose: 54.0 mg/kg/injection, schedule: Q04DX006 (ip), vehicle: saline with Tween-80, higher T/C = longer survival
  T/C: 129 % of control
T/C endpoint: median survival time, dose: 108.0 mg/kg/injection, schedule: Q04DX006 (ip), vehicle: saline with Tween-80, higher T/C = longer survival
  T/C: 138 % of control

## CCC/C=C/C=C/C(=O)OC1/C(=C/C(=O)OC)CC2CC(C(C)O)OC(=O)CC(O)CC3CC(OC(C)=O)C(C)(C)C(O)(CC4C/C(=C/C(=O)OC)CC(/C=C/C(C)(C)C1(O)O2)O4)O3 (centres undefined)
T/C endpoint: median survival time, dose: 40.0 micrograms/kg/injection, schedule: Q01DX009 (ip), vehicle: saline + Tween-80 + alcohol, higher T/C = longer survival
  T/C: 130 % of control
T/C endpoint: median survival time, dose: 40.0 micrograms/kg/injection, schedule: Q01DX009 (ip), vehicle: saline + alcohol, higher T/C = longer survival
  T/C: 125 % of control
T/C endpoint: median tumor weight (est.), dose: 80.0 micrograms/kg/injection, schedule: Q01DX009 (ip), vehicle: saline + Tween-80 + alcohol, higher T/C = larger tumour
  survivor count: 6 of 10 on day 20
T/C endpoint: median tumor weight (est.), dose: 80.0 micrograms/kg/injection, schedule: Q01DX009 (ip), vehicle: saline + alcohol, higher T/C = larger tumour
  survivor count: 6 of 10 on day 20

## CO[C@@]12[C@H](COC(N)=O)C3=C(C(=O)C(C)=C(N)C3=O)N1C[C@@H]1N[C@@H]12
T/C endpoint: median survival time, dose: 1.5 mg/kg/injection, schedule: Q04DX006 (ip), vehicle: saline, higher T/C = longer survival
  T/C: 130 % of control

## CC1(C)COCN1COCCOCN1COCC1(C)C
T/C endpoint: median survival time, dose: 200.0 mg/kg/injection, schedule: Q04DX003 (ip), vehicle: saline, higher T/C = longer survival
  survivor count: 6 of 10 on day 72
T/C endpoint: median survival time, dose: 400.0 mg/kg/injection, schedule: Q04DX003 (ip), vehicle: saline, higher T/C = longer survival
  survivor count: 0 of 10 on day 72

## OC(CBr)C(O)C(O)C(O)CBr (centres undefined)
T/C endpoint: median survival time, dose: 240.0 mg/kg/injection, schedule: Q04DX009 (ip), vehicle: saline with Tween-80, higher T/C = longer survival
  T/C: 137 % of control

## COC1CC23OC2(C1)C1C=CC3N(C(=O)OCC(Cl)(Cl)Cl)N1C(=O)OCC(Cl)(Cl)Cl (centres undefined)
T/C endpoint: median tumor weight (est.), dose: 200.0 mg/kg/injection, schedule: Q01DX009 (ip), vehicle: saline with Tween-80, evaluated on day 20, higher T/C = larger tumour
  T/C: 126 % of control

## NC(CSC(c1ccccc1)(c1ccccc1)c1ccccc1)C(=O)O (centres undefined)
T/C endpoint: mean tumor weight, dose: 140.0 mg/kg/injection, schedule: Q02DX011 (ip), vehicle: saline, higher T/C = larger tumour
  survivor count: 0 of 10 on day 22
T/C endpoint: median tumor weight (est.), dose: 140.0 mg/kg/injection, schedule: Q02DX011 (ip), vehicle: saline, higher T/C = larger tumour
  survivor count: 0 of 10 on day 22

## Cc1cc(C)nc(NS(=O)(=O)c2ccc(NC(=O)C(Cl)(Cl)Cl)cc2)n1
T/C endpoint: median tumor weight (est.), dose: 50.0 mg/kg/injection, schedule: Q01DX009 (ip), vehicle: saline with Tween-80, evaluated on day 20, higher T/C = larger tumour
  T/C: 135 % of control
